# Percent effect of library compounds

The chains behind the UniProt entries cited, without tags or fusion partners.
UniProt I6X8D2, whole entry: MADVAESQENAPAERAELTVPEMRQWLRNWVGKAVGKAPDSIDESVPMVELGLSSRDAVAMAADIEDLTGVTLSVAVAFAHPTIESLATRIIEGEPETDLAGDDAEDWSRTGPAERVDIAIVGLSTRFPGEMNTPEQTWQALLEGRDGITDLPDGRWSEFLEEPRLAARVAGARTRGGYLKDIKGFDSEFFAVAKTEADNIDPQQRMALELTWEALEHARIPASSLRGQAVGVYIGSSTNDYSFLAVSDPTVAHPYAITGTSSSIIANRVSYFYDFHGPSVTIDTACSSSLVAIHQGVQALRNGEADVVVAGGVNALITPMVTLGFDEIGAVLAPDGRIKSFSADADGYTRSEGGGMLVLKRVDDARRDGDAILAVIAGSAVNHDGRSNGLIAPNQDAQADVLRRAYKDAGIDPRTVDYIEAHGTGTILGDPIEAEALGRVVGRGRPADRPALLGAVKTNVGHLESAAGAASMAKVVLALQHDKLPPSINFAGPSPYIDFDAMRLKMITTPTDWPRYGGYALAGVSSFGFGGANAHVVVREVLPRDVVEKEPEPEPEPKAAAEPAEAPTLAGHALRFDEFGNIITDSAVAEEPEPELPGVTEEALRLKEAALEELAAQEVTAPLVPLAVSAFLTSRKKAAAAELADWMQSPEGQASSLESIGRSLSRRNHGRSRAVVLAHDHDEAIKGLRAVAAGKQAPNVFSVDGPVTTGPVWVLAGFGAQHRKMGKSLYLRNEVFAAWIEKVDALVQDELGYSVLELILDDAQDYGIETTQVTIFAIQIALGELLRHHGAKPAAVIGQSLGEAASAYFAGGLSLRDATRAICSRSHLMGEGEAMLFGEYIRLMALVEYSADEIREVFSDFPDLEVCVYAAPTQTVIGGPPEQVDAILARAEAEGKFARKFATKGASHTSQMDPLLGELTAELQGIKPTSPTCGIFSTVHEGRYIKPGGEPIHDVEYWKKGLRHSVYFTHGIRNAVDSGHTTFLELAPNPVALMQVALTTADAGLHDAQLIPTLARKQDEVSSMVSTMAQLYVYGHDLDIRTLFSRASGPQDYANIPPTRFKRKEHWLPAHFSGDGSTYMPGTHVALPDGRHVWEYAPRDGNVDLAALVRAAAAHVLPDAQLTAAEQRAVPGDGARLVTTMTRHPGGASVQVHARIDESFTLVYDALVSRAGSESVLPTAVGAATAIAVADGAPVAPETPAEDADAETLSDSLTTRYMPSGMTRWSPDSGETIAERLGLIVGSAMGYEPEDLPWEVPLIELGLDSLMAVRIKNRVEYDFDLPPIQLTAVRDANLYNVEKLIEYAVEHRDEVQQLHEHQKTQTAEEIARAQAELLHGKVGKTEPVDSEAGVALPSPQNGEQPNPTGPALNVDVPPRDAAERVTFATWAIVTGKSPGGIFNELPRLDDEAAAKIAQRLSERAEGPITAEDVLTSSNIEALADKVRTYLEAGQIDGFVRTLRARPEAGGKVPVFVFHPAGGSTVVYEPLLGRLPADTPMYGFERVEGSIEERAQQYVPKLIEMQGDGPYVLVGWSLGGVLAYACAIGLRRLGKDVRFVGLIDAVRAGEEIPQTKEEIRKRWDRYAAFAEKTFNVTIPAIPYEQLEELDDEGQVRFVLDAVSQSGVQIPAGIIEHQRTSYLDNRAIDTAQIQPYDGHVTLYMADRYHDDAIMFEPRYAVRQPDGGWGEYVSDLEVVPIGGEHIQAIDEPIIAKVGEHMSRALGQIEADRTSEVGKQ

Data taken from ChEMBL document CHEMBL3988442, “University of Dundee, Small-Polar-MMV Screening Library” (2021).

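Polyketide synthase Pks13, Mycobacterium tuberculosis (UniProt I6X8D2). Enzyme assay of the thioesterase domain of polyketide synthase 13; the read-out is not stated. Concentration: 30 µM. The record gives no direction; the compounds picked for IC50 retests had high values, so higher reads as stronger inhibition. Size under these conditions: about 67,000 compounds, about 300 of them at 50% or above in at least one test.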

Each number is a percent effect as filed. The record does not define 0% and 100%; most values in the screen are far below 50% and negative numbers occur (in some assays of this library far below -100). This is an unselected part of the compounds tested.

structure: Cc1cc(C(F)(F)F)nn1C(C)C(=O)NN1CCN(C)CC1 (stereo not given)
effect: -4.566

structure: CC(=O)N[C@H]1C[C@@H](c2nc(-c3ccc4c(c3)OCO4)no2)N(C)C1
effect: 17.27

structure: CCOC[C@H]1CC[C@H]2[C@H](CCN2C(=O)c2ccncc2F)O1
effect: -28.69

structure: CCNC(=O)[C@@H]1C[C@H](N)CN1C(=O)c1cccc(CCC(C)(C)O)c1
effect: -15.02

structure: O=C(c1cnccn1)N1CCC2(CC1)C(=O)NCC2c1ccccc1 (stereo not given)
effect: -16.97

structure: CCN(CC)C(=O)[C@@H]1C[C@H](NC(=O)c2ccn(C(C)(C)C)c2)CN1C
effect: 5.035

structure: Cc1ncc2c(c1CNC(=O)C1(c3ccc(F)cc3)CC1)CCNC2
effect: -27.06

structure: O=C(NC1CCN(c2ncccc2F)C1)c1cccc(-n2ccnc2)c1 (stereo not given)
effect: 21.28

structure: CCNc1cc2c(nn1)CCN(C(=O)c1ccc(-n3cccn3)nc1)C2
effect: -0.5859

structure: Cc1cc(-c2cc(S(=O)(=O)N3C[C@H](C4CC4)[C@@H](N)C3)c(C)s2)on1
effect: -15.13

structure: C[C@@H]1CN(C(=O)c2ccncc2)CC[C@@]1(O)C1CCOCC1
effect: -20.08

structure: O=C(NCCN1CCOC1=O)c1cc(-c2ccccc2)on1
effect: -11.33

structure: CSc1nc(C2CC2)nc(C)c1C(=O)NCc1cc(C)on1
effect: -7.614

structure: Cc1ccccc1C(=O)NCCCN1CCc2ccccc2C1
effect: -25.24

structure: CC(C)(C)n1ncc2c1CCCC2NCc1ccc2c(c1)CCO2 (stereo not given)
effect: -11.06

structure: Cc1cnn(CCNCc2nc(-c3ccsc3)oc2C)c1
effect: -24.36

structure: Cc1ncccc1CNC(CCO)C1CCCCC1 (stereo not given)
effect: 0.5292

structure: Cc1nc(C)n(CC2CCCN2CCOc2cccc(F)c2)n1 (stereo not given)
effect: -3.181

structure: CCc1cc2c(N3CCCC(c4cc(C(N)=O)[nH]n4)C3)ncnc2s1 (stereo not given)
effect: -19.95

structure: Cc1ccccc1CN(C)C(=O)CN1CCOC(Cn2cccn2)C1 (stereo not given)
effect: -22.56

structure: O=C(CCn1cncn1)N1CC[C@@H](c2ccc3ccccc3c2)[C@H](O)C1
effect: -25.55

structure: CCCn1ccnc1CN1CCCC1c1ccccn1 (stereo not given)
effect: -20.91

structure: CC(C)(O)CCc1cccc(C(=O)N2Cc3cnn(CCO)c3C2)c1
effect: -8.697

structure: N[C@@H]1c2ccccc2C2(CCN(C(=O)c3ccc(CO)o3)CC2)[C@H]1O
effect: -0.1197

structure: CC(C)=CCN1CCN(CCCOc2ccccc2)[C@H]2CS(=O)(=O)C[C@H]21
effect: -24.34

structure: CNC(=O)C1Cc2ccccc2CN1C(=O)CC(C)C (stereo not given)
effect: -11.94

structure: COc1ccccc1OCCN1CCCC(c2cc(C(N)=O)[nH]n2)C1 (stereo not given)
effect: -10.65

structure: Nc1nccc(C2CCN(c3cnccn3)C2)n1 (stereo not given)
effect: 14.27

structure: Cn1cccc1CN1CCc2c(nc(-c3ccccn3)[nH]c2=O)C1
effect: 10.4

structure: Nc1cc(-c2cncnc2C2CCN(C(=O)c3ccccc3)C2)ccn1 (stereo not given)
effect: 1.296

structure: c1cncc(CN2CCn3c(Cn4cncn4)cnc3C2)c1
effect: 8.781

structure: COc1ccc(S(=O)(=O)N2C[C@H](OC)[C@]3(CCCO3)C2)cc1
effect: 19.13

structure: COc1ccc(F)cc1C(C)NC(=O)NCCCn1cncn1 (stereo not given)
effect: 4.1

structure: Cc1csc(N2CCN(C(=O)C(C(C)C)n3cncn3)CC2)n1 (stereo not given)
effect: -8.04

The last 2 entries again:

| structure | effect |
|---|---|
| `COc1ccc(F)cc1C(C)NC(=O)NCCCn1cncn1` (stereo not given) | 4.1 |
| `Cc1csc(N2CCN(C(=O)C(C(C)C)n3cncn3)CC2)n1` (stereo not given) | -8.04 |